The values that follow come from article PMC6613765 (Journal of Virology, 2019).

Series [1] is described as follows: in vitro.
The nature of series [2]: in vitro. The following applies: mouse.

The structures appear in SMILES notation. Read-outs that look alike come from different tables or passages of the source.

With `Cc1cc(/C=C/c2ccc3cc(N(C)C)ccc3[n+]2C)c(C)n1-c1ccccc1` [Pyrvinium pamoate], the values for the CC50 in “in vitro [1]” and in “in vitro [2]” were more than 19 µM and 20 µM, respectively.
